Results are given in words; binding and its absence hold for the method and conditions named. Binding seen in cells or lysates may run through a third protein. Some entries that bind do so weakly or less than the wild type. Where a sequence is shown, tags or fusion partners need not be part of it.
Legend:
Experiment in all cases: co-IP; lysates of transiently transfected HEK293 (legends: HEK293T) cells, 50 mM Tris-Cl pH7.4, 150 mM NaCl, 0.5 mM EDTA with 1% LMNG or 0.5% Triton x-100; GFP-tagged PDZD8 constructs precipitated on GFP-Trap agarose beads, 4 °C; western blot with anti-Protrudin or anti-Rab7
PDZD8-GFP (full length) = molecular target: T1, PDZD8-GFP (full length) (UniProt Q8NEN9)
T1 sequence: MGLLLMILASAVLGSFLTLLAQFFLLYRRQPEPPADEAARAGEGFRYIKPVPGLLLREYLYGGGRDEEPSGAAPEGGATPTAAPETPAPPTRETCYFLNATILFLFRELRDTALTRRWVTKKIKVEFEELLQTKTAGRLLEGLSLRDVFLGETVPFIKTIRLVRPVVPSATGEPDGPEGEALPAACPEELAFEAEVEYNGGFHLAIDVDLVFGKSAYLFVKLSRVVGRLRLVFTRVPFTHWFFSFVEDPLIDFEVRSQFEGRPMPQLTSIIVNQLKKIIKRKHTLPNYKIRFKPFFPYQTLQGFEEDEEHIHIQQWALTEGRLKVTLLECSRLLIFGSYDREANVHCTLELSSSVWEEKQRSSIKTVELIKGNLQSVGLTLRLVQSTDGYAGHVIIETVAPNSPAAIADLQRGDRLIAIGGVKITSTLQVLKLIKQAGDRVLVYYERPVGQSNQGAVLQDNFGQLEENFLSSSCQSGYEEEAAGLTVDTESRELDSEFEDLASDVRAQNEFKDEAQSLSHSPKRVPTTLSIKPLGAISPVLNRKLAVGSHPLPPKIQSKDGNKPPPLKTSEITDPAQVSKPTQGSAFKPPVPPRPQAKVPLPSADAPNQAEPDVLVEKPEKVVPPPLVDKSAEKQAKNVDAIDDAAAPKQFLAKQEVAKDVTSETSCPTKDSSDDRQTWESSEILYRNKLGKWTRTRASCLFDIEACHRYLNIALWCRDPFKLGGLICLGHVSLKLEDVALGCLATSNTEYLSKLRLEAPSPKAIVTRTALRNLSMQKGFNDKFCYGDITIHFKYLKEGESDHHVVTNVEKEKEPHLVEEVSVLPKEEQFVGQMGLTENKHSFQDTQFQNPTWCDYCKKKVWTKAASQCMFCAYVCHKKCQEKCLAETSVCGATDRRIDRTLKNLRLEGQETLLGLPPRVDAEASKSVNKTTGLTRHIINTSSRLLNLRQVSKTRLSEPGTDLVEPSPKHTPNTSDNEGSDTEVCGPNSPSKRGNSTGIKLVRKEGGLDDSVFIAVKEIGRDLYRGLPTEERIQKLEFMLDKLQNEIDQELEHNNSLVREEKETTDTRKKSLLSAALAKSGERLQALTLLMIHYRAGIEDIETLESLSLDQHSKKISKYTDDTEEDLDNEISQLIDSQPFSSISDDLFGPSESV

PDZD8 (1-300)-GFP = molecular target: T2, PDZD8 (1-300)-GFP (UniProt Q8NEN9)
T2 sequence: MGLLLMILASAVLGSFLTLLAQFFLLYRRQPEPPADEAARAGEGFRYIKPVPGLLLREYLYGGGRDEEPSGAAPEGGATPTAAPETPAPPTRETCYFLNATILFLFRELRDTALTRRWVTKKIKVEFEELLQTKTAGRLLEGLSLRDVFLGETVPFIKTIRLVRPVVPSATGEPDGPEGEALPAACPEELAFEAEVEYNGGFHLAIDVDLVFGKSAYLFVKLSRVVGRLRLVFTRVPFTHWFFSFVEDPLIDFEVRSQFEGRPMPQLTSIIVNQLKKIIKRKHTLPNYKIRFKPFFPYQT

PDZD8ΔCC-GFP (1-1000) = molecular target: T3, PDZD8ΔCC-GFP (1-1000) (UniProt Q8NEN9)
T3 sequence: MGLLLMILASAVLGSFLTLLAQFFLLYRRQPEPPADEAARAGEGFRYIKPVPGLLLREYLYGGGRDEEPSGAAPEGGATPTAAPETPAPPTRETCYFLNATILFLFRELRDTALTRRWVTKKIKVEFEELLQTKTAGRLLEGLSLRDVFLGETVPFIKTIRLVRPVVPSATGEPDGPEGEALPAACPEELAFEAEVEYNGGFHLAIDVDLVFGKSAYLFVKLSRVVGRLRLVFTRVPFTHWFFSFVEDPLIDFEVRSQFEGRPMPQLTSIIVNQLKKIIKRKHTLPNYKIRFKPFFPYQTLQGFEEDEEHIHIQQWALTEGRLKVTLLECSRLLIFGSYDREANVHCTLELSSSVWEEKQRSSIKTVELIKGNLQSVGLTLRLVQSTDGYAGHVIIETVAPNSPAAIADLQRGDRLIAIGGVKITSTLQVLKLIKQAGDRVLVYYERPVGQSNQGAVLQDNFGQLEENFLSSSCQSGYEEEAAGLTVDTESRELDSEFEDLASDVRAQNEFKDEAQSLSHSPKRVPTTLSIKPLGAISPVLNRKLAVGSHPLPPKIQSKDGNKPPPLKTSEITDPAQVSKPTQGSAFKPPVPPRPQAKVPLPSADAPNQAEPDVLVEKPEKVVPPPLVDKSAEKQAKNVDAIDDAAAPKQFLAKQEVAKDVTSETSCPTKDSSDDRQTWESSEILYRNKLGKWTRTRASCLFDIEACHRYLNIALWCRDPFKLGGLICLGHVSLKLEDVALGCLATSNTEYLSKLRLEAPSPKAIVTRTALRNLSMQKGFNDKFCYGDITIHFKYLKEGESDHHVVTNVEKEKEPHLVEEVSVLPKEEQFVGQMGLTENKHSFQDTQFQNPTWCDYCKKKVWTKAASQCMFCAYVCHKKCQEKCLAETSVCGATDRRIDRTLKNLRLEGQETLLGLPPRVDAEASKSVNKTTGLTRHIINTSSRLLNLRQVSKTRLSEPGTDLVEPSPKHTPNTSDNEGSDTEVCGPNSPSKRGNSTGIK

Measured: binding

B1: Protrudin-mCherry (protein, UniProt Q5T4F4 1-411)
chain: MQTSEREGSGPELSPSVMPEAPLESPPFPTKSPAFDLFNLVLSYKRLEIYLEPLKDAGDGVRYLLRWQMPLCSLLTCLGLNVLFLTLNEGAWYSVGALMISVPALLGYLQEVCRARLPDSELMRRKYHSVRQEDLQRGRLSRPEAVAEVKSFLIQLEAFLSRLCCTCEAAYRVLHWENPVVSSQFYGALLGTVCMLYLLPLCWVLTLLNSTLFLGNVEFFRVVSEYRASLQQRMNPKQEEHAFESPPPPDVGGKDGLMDSTPALTPTEDLTPGSVEEAEEAEPDEEFKDAIEETHLVVLEDDEGAPCPAEDELALQDNGFLSKNEVLRSKVSRLTERLRKRYPTNNFGNCTGCSATFSVLKKRRSCSNCGNSFCSRCCSFKVPKSSMGATAPEAQRETVFVCASCNQTLSK
binds: all assays above

Reference: paper PMC7371716
